The star is where a group is joined. Dde = CC(=C1C(=O)CC(C)(C)CC1=O)*; Boc = CC(C)(C)OC(=O)*

The nature of data set [1]: general procedure: Fmoc solid-phase peptide synthesis; Fmoc-Tyr(OtBu)-Wang Resin; Wang Resin (0.60 mmol/g); HMPB-BHA resin (0.86 mmol/g); HBTU/HOBT/DIEA; HATU/DIEA. Particulars: conjugation step.
Data set [2] is described as follows: general procedure: Fmoc solid-phase peptide synthesis; HMPB-BHA resin; HBTU/HOBT/DIEA; HATU/DIEA. Conditions: whole synthesis.

For “3-(6-(3-(N-(3-((6-((1-Aza-2-(2-sulfophenyl)vinyl)amino)(3-pyridyl))-Gly-Lys-Lys-Lys)aminopropyl)carbamoyl)propoxy)-2-(5-(5-oxo-1-prop-2-enyl(2-6,7,8-trihydronaphthyloxy))pentyloxy)phenyl)propanoic Acid”, the conjugation yield in data set [1] is on record as 35%.

On to Boc-GK(Dde)K(Dde)K(Dde)-OH, for which the isolated yield in data set [2] turned out to be 35%.

Values taken from patent EP0999856B1 (Bristol-Myers Squibb Pharma Company, priority 1996, dated 1998).
